Library screen at single concentrations

By UniProt entry, the sequences of proteins in these tests, tags left out.
UniProt P9WNZ1, whole entry: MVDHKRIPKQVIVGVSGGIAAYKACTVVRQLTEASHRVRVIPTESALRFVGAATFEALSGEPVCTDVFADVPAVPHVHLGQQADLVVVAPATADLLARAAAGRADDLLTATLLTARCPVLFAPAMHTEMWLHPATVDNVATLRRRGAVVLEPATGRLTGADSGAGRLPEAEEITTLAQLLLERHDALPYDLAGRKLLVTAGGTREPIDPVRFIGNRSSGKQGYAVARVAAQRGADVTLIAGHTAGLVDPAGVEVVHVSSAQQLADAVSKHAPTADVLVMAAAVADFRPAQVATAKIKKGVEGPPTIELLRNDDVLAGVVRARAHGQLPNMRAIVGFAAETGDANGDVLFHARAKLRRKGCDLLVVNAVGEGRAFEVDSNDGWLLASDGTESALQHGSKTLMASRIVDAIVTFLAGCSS

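Coenzyme A biosynthesis protein CoaBC, Mycobacterium tuberculosis (UniProt P9WNZ1). Enzyme assay of CoaBC with a phosphate dye (Biomol Green) read at 650 nm. Compounds at 30 µM. Direction is inferred from only a few compounds that gave an IC50; most scored high, so higher reads as stronger inhibition. Most strong results did not repeat in a second test. About 67,000 compounds were tested under these conditions; 0.06% (about 40) showed 50% or more at least once.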

Each number is a percent effect as filed. The controls that fix the scale are not given in the record; negative values are as filed. The compounds are a random part of those screened.

| # | SMILES | percent effect |
|---|---|---|
| 1 | `N#Cc1cccc(CN2CCCC2Cn2cncn2)c1` (stereo not given) | -6.087 |
| 2 | `c1cc(-c2c[nH]nc2C2CCCCC2)nc(N2CCCCCC2)n1` | 9.277 |
| 3 | `Cc1ccc(-c2cnnc(NCC3CCOCC3)n2)o1` | 6.707 |
| 4 | `COCC(C)(CCO)NC(=O)Nc1cccc(F)c1C` (stereo not given) | 1.814 |
| 5 | `CNC(=O)[C@H]1C[C@@H]2CN(C(=O)NCCc3ccccc3)C[C@H]1O2` | -8.403 |
| 6 | `Cc1nc(C(C)(C)NCc2nnc(C(C)C)o2)sc1C` | 3.828 |
| 7 | `CC(C)c1cc(NC(=O)c2ccc([S+]([O-])C(C)C)cc2)[nH]n1` (stereo not given) | 3.226 |
| 8 | `Cc1cccc(CS(=O)(=O)c2nnc(N3CCOCC3)s2)c1` | -4.268 |
| 9 | `COCCN1CCN(Cc2nc(-c3ccoc3)no2)CC1` | -0.6361 |
| 10 | `CC(C)c1nsc(N2CCS(=O)(=O)CC2)n1` | 7.975 |
| 11 | `CN(C)CCN1C(=O)CCCC12CCCN(C(=O)c1ccncc1)C2` (stereo not given) | 1.576 |
| 12 | `CC(C)C[C@@H]1N[C@H](C(=O)NC2CCOCC2)Cc2c[nH]c3cccc1c23` | -0.6623 |
| 13 | `CCn1c(N)nc2cc(C(=O)NCCCc3ccccn3)cnc21` | 2.405 |
| 14 | `Cn1nc(C2CCN(C(=O)c3cnccn3)C2)cc1CCO` (stereo not given) | -1.456 |
| 15 | `CC(CNC1CCN(Cc2ccncc2)CC1)c1ccc(F)cc1F` (stereo not given) | -2.296 |
| 16 | `O=C(c1cccs1)N1C[C@H]2CC[C@@]3(N=C(c4ccccc4)NC3=O)[C@H]2C1` | -7.273 |
| 17 | `COc1ccccc1N1CCN(C(=O)Cn2nccc2C)CC1(C)C` | 0.2169 |
| 18 | `CCc1nc(CC(=O)N2CCCC2c2c(C)nn(C)c2OC)cs1` (stereo not given) | 3.484 |
| 19 | `CC(C)Oc1ncccc1CNC(=O)C1CCCN(C(=O)C2CC2)C1` (stereo not given) | -0.266 |
| 20 | `Cn1nnnc1SCCC(=O)NCC1Cc2ccccc2O1` (stereo not given) | 0 |
| 21 | `O=C(O)CCc1cn(C2CCN(c3ncccc3Cl)CC2)nn1` | 1.241 |
| 22 | `COC(=O)c1cccc(C(=O)N2CCCC(n3cncn3)C2)c1` (stereo not given) | -0.8696 |
| 23 | `CC(=O)c1nn(-c2ccccc2Cl)c(C)c1C(C)=O` | 1.651 |
| 24 | `COCCNC(=O)NCc1cc(-c2ccncc2)n(C2CCCC2)n1` | -0.7264 |
| 25 | `CCC(C)C(=O)NCc1ccn(-c2ccc(F)cc2)n1` (stereo not given) | -1.594 |
| 26 | `CC(C)c1nc(C2CCCN(C(=O)Cn3ccccc3=O)C2)no1` (stereo not given) | 5.612 |
| 27 | `CCc1nc2ccccc2c(=O)n1CC1(O)CCN(C(=O)C(C)C)CC1` | 0.4902 |
| 28 | `Cc1ccnn1CCC(=O)N1CCCC[C@]2(C)NC(=O)CCC[C@H]12` | 3.641 |
| 29 | `CCc1nc(CCNc2ccc(S(N)(=O)=O)cc2C#N)cs1` | 1.263 |
| 30 | `COCCN1CCN(C(=O)c2ccccc2C(C)=O)[C@H]2CS(=O)(=O)C[C@H]21` | 11.82 |
| 31 | `C1CC(c2nnc(CN3CCCC3c3noc(C4CC4)n3)o2)C1` (stereo not given) | 8.593 |
| 32 | `CC(C(=O)N1CCc2sccc2C1)N1CCC(S(N)(=O)=O)CC1` (stereo not given) | 12.74 |
| 33 | `Cc1nc(-c2ccco2)ccc1C(=O)NCCCN1CCOCC1` | 0.128 |
| 34 | `CC(=O)N1CCC2(CC1)CN(C(=O)c1cccnc1)c1ccc(F)cc12` | -1.856 |
| 35 | `Cn1cc(I)c(C(=O)NC2CCCCC2)n1` | -4.971 |
| 36 | `O=C(N[C@@H]1CN(c2ncccn2)[C@@H]2CCCO[C@@H]21)c1cnccn1` | 3.934 |
| 37 | `c1cc(COC[C@]23COC[C@H]2CN(CC2CCC2)C3)ccn1` | 3.448 |
| 38 | `CCn1nc(C)cc1C(=O)N1C[C@@H]2C[C@@H](c3nc(C)cs3)O[C@@H]2C1` | 0.3636 |
| 39 | `Cc1ccc(OCCCNC(=O)C(C)Sc2nncn2C)cc1` (stereo not given) | 18.8 |
| 40 | `CC(C)[C@@H]1CN(C(=O)c2ccc3c(c2)CCCO3)C[C@H]1NS(C)(=O)=O` | 1.923 |
| 41 | `O=C1NC2(CCCN(C(=O)CCn3cncn3)C2)Oc2ccccc21` (stereo not given) | -1.051 |
| 42 | `CCSc1ccc(C(=O)N2CC[C@](O)(CC)[C@H](O)C2)s1` | 9.877 |
| 43 | `CCOc1cc(NC(=O)N2CCOC3(CCC3)C2)ccc1C` | 0.1274 |
| 44 | `CN(C)C(=O)c1ccc(-c2cccc3c2CCNC3)cc1` | 1.337 |
| 45 | `Cc1ccsc1CN1CCC(n2cc(C(O)c3ccccc3)nn2)CC1` (stereo not given) | 7.577 |
| 46 | `CC(CN1CCCC1=O)NC(=O)c1ccc(C(F)(F)F)[nH]c1=O` (stereo not given) | -3.201 |
| 47 | `CCOCCC(=O)N1CCN(CC(C)O)CC1` (stereo not given) | 7.782 |
| 48 | `O=C([C@@H]1C[C@@H]2CCN(C3CCOCC3)C[C@H]2O1)N1CCCC1` | 1.728 |
| 49 | `COc1ccc2nnc(CCC(=O)Nc3nc4c(s3)CCC4)n2n1` | 5.542 |
| 50 | `CC(NC(=O)c1cccs1)C(=O)NS(=O)(=O)c1ccc(C#N)cc1` (stereo not given) | 2.451 |
| 51 | `CCn1cc(NC(=O)NCc2ccc(CN3CCOCC3)cc2)cn1` | 0.7905 |
| 52 | `Cc1nnc([C@@H]2CC[C@@H]3[C@@H](CCN3S(=O)(=O)c3cccnc3)O2)o1` | -1.028 |
| 53 | `CN(C)CCOCc1cncc2c1CCN(C(=O)c1cscn1)C2` | 4.084 |
| 54 | `CN(C)CC(=O)N1CCc2sc(C(=O)N3CCOCC3)cc21` | 1.114 |
| 55 | `Cc1ccc(CN(C)C(=O)C(C)n2ccnc2C(C)C)o1` (stereo not given) | 0.2469 |

For reference, 7 entries once more:

- Cn1nnnc1SCCC(=O)NCC1Cc2ccccc2O1 (stereo not given) : 0%
- Cc1ccnn1CCC(=O)N1CCCC[C@]2(C)NC(=O)CCC[C@H]12 : 3.641%
- O=C(O)CCc1cn(C2CCN(c3ncccc3Cl)CC2)nn1 : 1.241%
- O=C(c1cccs1)N1C[C@H]2CC[C@@]3(N=C(c4ccccc4)NC3=O)[C@H]2C1 : -7.273%
- Cn1cc(I)c(C(=O)NC2CCCCC2)n1 : -4.971%
- CC(=O)c1nn(-c2ccccc2Cl)c(C)c1C(C)=O : 1.651%
- COCCNC(=O)NCc1cc(-c2ccncc2)n(C2CCCC2)n1 : -0.7264%

Measurements from “University of Dundee, Small-Polar-MMV Screening Library” (2021), ChEMBL document CHEMBL3988442.